Usually cell viability stands for a read-out of living cells in per cent, often relative to untreated cells.

In the supplement of paper PMC3682954 one finds cell viability data, which are given here for 42 molecules.

The assay has as its system RAW 264.7. The assay is described as follows: cell viability (MTT) relative to vehicle control; higher = more viable cells. The following applies: stimulus: HMGB1 5 ug/ml, 18 h.
Setting [1] is: compound concentration: 1 ug/ml.

“And” between values parts separate entries of the source, which are not always exact repeats. Equal entries are not always repeated. Structures can show the parent of a compound that is named as a salt. ± gives the standard deviation of the averaged measurements. This is one part of the list. Many values rest on one well or one pass, so single values are uncertain.

As for `C[C@H]1CCC[C@H](O)CCCCCc2cc(O)cc(O)c2C(=O)O1`, the cell viability (compound concentration: 3 uM) amounted to 100%.
The same measure, in the same setting: to `COc1ccc(CCN2CCC(Nc3nc4ccccc4n3Cc3ccc(F)cc3)CC2)cc1` belongs 59.2%; to `COc1ccc(CCN2CCC(Nc3nc4ccccc4n3Cc3ccc(F)cc3)CC2)cc1` [Astemizole], 73 ± 43%; to `CC(=O)O[C@H]1C[C@H](O[C@H]2[C@@H](O)C[C@H](O[C@H]3[C@@H](O)C[C@H](O[C@H]4CC[C@@]5(C)[C@H](CC[C@@H]6[C@@H]5C[C@@H](O)[C@]5(C)[C@@H](C7=CC(=O)OC7)CC[C@]65O)C4)O[C@@H]3C)O[C@@H]2C)O[C@H](C)[C@H]1O[C@@H]1O[C@H](CO)[C@@H](O)[C@H](O)[C@H]1O`, 119%.
On the same count and under the same terms, the result for `CC(=O)O[C@H]1C[C@H](O[C@H]2[C@@H](O)C[C@H](O[C@H]3[C@@H](O)C[C@H](O[C@H]4CC[C@@]5(C)[C@H](CC[C@@H]6[C@@H]5C[C@@H](O)[C@]5(C)[C@@H](C7=CC(=O)OC7)CC[C@]65O)C4)O[C@@H]3C)O[C@@H]2C)O[C@H](C)[C@H]1O[C@@H]1O[C@H](CO)[C@@H](O)[C@H](O)[C@H]1O` [Lanatoside C] reads 110%.
Consider `CC(=O)O[C@H]1C[C@H](O[C@H]2[C@@H](O)C[C@H](O[C@H]3[C@@H](O)C[C@H](O[C@H]4CC[C@@]5(C)[C@H](CC[C@@H]6[C@@H]5C[C@@H](O)[C@]5(C)[C@@H](C7=CC(=O)OC7)CC[C@]65O)C4)O[C@@H]3C)O[C@@H]2C)O[C@H](C)[C@H]1O[C@@H]1O[C@H](CO)[C@@H](O)[C@H](O)[C@H]1O` [lanatoside C], for which, under setting [1], the cell viability amounted to 97.1%.
For the molecule `C[C@]12N[C@H](Cc3ccccc31)c1ccccc12` [Dizocilpine maleate], the cell viability (compound concentration: 3 uM) was 90.6%.
Regarding `C[N+]1([O-])[C@@H]2C[C@@H](OC(=O)[C@H](CO)c3ccccc3)C[C@H]1[C@@H]1O[C@@H]12` (stereo partly drawn) [Scopolamin-N-oxide hydrobromide], under “compound concentration: 3 uM”, the cell viability was determined as 132%.
On the same count and under the same terms, the result for `NCCc1ccccn1` reads 97.2%; that for `CCN(CC)C(C)C(=O)c1ccccc1` (stereo not drawn) [Amfepramone hydrochloride], 96%.
Same read-out and setting: the result for `O[C@@H]1CCCC[C@H]1N1CCC(c2ccccc2)CC1` [L(-)-vesamicol hydrochloride] reads 93.4%; that for `O=C1CCCN1CC#CCN1CCCC1` [Oxotremorine], 110%; that for `O=C1CCCN1CC#CCN1CCCC1` [Oxotremorine sesquifumarate salt], 100%.
On to `c1cncc([C@@H]2CCCN2)c1` [Nornicotine], for which, for the setting “compound concentration: 3 uM”, the cell viability came to 98.4%.
On the same count and under the same terms, the result for `CC1(C)C(C=C(Cl)Cl)C1C(=O)OC(C#N)c1cccc(Oc2ccccc2)c1` (stereo not drawn) reads 111%.
The same measure, in the same setting: the result for `Oc1cc(Cl)ccc1Oc1ccc(Cl)cc1Cl` reads 101%; that for `Oc1cc(Cl)ccc1Oc1ccc(Cl)cc1Cl` [Triclosan], 102%; that for `COc1ccc(Cc2nccc3cc(OC)c(OC)cc23)cc1OC`, 108%.
As for `COc1ccc(Cc2nccc3cc(OC)c(OC)cc23)cc1OC` [Papaverine hydrochloride], the cell viability (compound concentration: 3 uM) stood at 112 ± 2.7%.
Still for that read-out and setting: to `NCCCP(=O)(O)O` [3-Aminopropylphosphonic acid] belongs 103%.
On to `CNCCc1c[nH]c2ccc(O)cc12` [N-omega-Methyl-5-hydroxytryptamine oxalate salt], for which the cell viability (compound concentration: 3 uM) came out at 108%.
On to `CNC1=Nc2ccc(Cl)cc2C(c2ccccc2)=[N+]([O-])C1`, for which the cell viability (compound concentration: 3 uM) was 103 ± 3.2%.
Same read-out and setting: to `CCC1(CC)C(=O)C=CNC1=O` [Pyrithyldione] belongs 97.9%.
The same measure, in the same setting: to `CCC1(CC)C(=O)C=CNC1=O` belongs 113%.
In the case of `COc1cc2c(c(OC)c1OC)-c1ccc(=O)c(O)cc1[C@@H](NC(C)=O)CC2` [Colchiceine], the cell viability under setting [1] stood at 83.5%.
`NNC(=O)c1ccc(O)cc1` [4-Hydroxybenzhydrazide]: the cell viability (compound concentration: 3 uM) was 97.1%.
The same measure, in the same setting: to `C=C(C)[C@H]1Cc2c(ccc3c2O[C@@H]2COc4cc(OC)c(OC)cc4[C@@H]2C3=O)O1` belongs 68.9%.
On to `C=C(C)[C@H]1Cc2c(ccc3c2O[C@@H]2COc4cc(OC)c(OC)cc4[C@@H]2C3=O)O1` [Rotenone], for which the cell viability under setting [1] was 65.5% and the cell viability (compound concentration: 3 uM) came to 98.5%.
As to `COC(=O)C1=CCCN(C)C1`, under “compound concentration: 3 uM”, the cell viability turned out to be 102%.
On the same count and under the same terms, to `COC(=O)C1=CCCN(C)C1` [Arecoline hydrobromide] belongs 118 ± 20%; to `N[C@@H](CCl)C(=O)O` [beta-Chloro-L-alanine hydrochloride], 108%.
On the same count and under the same terms, the result for `Fc1ccc(C(OCCN2CCN(CCCc3ccccc3)CC2)c2ccc(F)cc2)cc1` reads 100% and 90.7%; that for `CC(C)(C)NCC(O)c1cc(Cl)c(N)c(Cl)c1` (stereo not drawn) [Clenbuterol hydrochloride], 98.2%.
Still for that read-out and setting: to `CC(C)(C)NCC(O)c1cc(Cl)c(N)c(Cl)c1` (stereo not drawn) [Clenbuterol] belongs 103%; to `CC(C)(C)NCC(O)c1cc(Cl)c(N)c(Cl)c1` (stereo not drawn), 111%; to `COc1cc2c(cc1OC)[C@@]13CCN4CC5=CCO[C@H]6CC(=O)N2[C@H]1[C@H]6[C@H]5C[C@H]43`, 99.9 ± 7.9%.
As for `COc1cc2c(cc1OC)[C@@]13CCN4CC5=CCO[C@H]6CC(=O)N2[C@H]1[C@H]6[C@H]5C[C@H]43` [Brucine], for the setting “compound concentration: 3 uM”, the cell viability was 92.1%.
For `COc1cc2c(cc1OC)[C@H](C)NCC2` [Salsolidine], the cell viability under setting [1] is 95.3%.
Turning to `O=C(NC(=O)c1c(F)cccc1F)Nc1cc(Cl)c(OC(F)(F)C(F)C(F)(F)F)cc1Cl` (stereo not drawn), the cell viability (compound concentration: 3 uM) came out at 107%.
Still for that read-out and setting: to `NNC(N)=O` [Semicarbazide hydrochloride] belongs 118%; to `O=C[C@H](Cl)[C@@H](O)[C@H](O)[C@H](O)CO` [2-Chloro-2-deoxy-D-glucose], 113%; to `CN(C(=O)Cc1ccc(Cl)c(Cl)c1)C(CN1CCCC1)c1cccc(OCC(=O)O)c1` (stereo not drawn) [ICI 204,448 hydrochloride], 95.9%.
